In article doi:10.1101/2025.04.26.650725:
No constants are given. Whether binding was seen depends on the method and setting. Binding seen in cells or lysates may run through a third protein. Here binding means that the protein was enriched with, or labelled near, the bait; the list need not be complete.

Chains of the proteins cited; added tags and fusions are not shown.
UniProt O43149: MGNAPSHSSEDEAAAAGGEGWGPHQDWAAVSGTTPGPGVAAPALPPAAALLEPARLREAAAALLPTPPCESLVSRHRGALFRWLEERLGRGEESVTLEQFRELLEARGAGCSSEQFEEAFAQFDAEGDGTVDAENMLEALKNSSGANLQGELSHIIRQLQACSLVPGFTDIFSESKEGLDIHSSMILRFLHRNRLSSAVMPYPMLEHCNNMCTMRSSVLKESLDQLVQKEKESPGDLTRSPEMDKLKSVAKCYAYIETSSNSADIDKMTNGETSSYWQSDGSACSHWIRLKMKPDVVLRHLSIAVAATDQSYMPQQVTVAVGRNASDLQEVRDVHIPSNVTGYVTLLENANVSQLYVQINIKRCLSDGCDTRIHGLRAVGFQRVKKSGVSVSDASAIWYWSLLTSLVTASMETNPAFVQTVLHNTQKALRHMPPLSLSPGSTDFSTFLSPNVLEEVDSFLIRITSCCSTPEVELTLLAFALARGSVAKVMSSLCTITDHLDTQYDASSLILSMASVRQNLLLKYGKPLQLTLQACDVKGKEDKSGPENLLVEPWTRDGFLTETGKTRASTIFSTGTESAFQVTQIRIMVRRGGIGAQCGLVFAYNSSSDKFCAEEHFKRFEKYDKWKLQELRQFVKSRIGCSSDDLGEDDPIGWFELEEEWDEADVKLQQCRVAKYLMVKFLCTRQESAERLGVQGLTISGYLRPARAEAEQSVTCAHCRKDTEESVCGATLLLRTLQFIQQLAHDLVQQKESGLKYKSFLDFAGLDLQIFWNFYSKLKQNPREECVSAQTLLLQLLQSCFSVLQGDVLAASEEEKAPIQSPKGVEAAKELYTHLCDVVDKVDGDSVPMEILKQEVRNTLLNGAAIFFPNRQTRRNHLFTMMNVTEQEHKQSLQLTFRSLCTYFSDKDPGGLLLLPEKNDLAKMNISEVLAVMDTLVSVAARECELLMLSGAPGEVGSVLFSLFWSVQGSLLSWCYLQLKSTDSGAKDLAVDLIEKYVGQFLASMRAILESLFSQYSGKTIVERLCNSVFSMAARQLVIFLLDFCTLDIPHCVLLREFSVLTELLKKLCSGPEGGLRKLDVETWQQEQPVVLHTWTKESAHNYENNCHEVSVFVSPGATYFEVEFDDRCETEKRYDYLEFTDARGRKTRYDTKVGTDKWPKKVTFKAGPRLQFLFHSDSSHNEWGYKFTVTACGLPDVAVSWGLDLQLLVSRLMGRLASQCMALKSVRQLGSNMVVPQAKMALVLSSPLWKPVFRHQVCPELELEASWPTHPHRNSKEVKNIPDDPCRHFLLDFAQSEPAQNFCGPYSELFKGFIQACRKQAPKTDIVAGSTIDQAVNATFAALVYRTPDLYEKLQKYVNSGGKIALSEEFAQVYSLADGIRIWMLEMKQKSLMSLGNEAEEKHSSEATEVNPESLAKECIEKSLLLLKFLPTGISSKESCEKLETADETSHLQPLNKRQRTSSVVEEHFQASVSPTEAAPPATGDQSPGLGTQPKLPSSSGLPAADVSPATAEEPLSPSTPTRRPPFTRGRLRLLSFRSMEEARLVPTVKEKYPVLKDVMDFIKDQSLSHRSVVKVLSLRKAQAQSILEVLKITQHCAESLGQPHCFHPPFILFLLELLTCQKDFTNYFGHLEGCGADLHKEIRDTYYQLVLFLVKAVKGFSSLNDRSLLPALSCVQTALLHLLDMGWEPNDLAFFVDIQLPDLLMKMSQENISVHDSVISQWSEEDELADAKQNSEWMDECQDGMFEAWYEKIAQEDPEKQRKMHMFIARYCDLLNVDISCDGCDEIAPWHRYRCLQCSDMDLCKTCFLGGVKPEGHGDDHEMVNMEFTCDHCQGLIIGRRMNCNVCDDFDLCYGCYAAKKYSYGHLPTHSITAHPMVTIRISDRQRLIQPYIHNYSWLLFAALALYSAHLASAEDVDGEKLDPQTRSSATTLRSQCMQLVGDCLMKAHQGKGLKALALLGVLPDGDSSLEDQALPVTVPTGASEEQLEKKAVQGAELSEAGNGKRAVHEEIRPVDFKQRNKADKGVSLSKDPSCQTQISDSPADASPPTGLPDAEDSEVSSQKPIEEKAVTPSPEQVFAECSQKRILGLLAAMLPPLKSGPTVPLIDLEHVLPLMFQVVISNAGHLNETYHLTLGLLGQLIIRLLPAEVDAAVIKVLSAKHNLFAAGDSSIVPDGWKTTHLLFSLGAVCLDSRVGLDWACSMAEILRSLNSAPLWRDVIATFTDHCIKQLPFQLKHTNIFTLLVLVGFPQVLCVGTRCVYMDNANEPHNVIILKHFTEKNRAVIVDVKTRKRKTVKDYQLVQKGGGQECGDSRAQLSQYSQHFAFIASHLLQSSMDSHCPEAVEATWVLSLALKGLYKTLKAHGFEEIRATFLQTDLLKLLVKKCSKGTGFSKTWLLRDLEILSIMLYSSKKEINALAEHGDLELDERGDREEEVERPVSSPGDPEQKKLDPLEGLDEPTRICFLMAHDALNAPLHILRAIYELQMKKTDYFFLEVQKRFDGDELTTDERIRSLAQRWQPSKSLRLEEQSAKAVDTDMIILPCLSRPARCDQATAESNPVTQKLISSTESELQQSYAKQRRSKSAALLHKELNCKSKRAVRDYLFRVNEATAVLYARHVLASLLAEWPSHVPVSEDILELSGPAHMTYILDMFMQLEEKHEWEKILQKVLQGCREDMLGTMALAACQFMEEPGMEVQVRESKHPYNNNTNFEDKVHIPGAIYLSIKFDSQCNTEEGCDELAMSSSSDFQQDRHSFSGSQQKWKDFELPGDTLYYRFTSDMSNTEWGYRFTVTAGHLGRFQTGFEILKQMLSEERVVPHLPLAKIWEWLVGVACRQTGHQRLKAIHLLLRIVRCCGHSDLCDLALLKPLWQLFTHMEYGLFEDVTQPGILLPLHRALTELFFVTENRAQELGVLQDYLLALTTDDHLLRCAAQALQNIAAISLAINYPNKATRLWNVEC
UniProt Q8TD26: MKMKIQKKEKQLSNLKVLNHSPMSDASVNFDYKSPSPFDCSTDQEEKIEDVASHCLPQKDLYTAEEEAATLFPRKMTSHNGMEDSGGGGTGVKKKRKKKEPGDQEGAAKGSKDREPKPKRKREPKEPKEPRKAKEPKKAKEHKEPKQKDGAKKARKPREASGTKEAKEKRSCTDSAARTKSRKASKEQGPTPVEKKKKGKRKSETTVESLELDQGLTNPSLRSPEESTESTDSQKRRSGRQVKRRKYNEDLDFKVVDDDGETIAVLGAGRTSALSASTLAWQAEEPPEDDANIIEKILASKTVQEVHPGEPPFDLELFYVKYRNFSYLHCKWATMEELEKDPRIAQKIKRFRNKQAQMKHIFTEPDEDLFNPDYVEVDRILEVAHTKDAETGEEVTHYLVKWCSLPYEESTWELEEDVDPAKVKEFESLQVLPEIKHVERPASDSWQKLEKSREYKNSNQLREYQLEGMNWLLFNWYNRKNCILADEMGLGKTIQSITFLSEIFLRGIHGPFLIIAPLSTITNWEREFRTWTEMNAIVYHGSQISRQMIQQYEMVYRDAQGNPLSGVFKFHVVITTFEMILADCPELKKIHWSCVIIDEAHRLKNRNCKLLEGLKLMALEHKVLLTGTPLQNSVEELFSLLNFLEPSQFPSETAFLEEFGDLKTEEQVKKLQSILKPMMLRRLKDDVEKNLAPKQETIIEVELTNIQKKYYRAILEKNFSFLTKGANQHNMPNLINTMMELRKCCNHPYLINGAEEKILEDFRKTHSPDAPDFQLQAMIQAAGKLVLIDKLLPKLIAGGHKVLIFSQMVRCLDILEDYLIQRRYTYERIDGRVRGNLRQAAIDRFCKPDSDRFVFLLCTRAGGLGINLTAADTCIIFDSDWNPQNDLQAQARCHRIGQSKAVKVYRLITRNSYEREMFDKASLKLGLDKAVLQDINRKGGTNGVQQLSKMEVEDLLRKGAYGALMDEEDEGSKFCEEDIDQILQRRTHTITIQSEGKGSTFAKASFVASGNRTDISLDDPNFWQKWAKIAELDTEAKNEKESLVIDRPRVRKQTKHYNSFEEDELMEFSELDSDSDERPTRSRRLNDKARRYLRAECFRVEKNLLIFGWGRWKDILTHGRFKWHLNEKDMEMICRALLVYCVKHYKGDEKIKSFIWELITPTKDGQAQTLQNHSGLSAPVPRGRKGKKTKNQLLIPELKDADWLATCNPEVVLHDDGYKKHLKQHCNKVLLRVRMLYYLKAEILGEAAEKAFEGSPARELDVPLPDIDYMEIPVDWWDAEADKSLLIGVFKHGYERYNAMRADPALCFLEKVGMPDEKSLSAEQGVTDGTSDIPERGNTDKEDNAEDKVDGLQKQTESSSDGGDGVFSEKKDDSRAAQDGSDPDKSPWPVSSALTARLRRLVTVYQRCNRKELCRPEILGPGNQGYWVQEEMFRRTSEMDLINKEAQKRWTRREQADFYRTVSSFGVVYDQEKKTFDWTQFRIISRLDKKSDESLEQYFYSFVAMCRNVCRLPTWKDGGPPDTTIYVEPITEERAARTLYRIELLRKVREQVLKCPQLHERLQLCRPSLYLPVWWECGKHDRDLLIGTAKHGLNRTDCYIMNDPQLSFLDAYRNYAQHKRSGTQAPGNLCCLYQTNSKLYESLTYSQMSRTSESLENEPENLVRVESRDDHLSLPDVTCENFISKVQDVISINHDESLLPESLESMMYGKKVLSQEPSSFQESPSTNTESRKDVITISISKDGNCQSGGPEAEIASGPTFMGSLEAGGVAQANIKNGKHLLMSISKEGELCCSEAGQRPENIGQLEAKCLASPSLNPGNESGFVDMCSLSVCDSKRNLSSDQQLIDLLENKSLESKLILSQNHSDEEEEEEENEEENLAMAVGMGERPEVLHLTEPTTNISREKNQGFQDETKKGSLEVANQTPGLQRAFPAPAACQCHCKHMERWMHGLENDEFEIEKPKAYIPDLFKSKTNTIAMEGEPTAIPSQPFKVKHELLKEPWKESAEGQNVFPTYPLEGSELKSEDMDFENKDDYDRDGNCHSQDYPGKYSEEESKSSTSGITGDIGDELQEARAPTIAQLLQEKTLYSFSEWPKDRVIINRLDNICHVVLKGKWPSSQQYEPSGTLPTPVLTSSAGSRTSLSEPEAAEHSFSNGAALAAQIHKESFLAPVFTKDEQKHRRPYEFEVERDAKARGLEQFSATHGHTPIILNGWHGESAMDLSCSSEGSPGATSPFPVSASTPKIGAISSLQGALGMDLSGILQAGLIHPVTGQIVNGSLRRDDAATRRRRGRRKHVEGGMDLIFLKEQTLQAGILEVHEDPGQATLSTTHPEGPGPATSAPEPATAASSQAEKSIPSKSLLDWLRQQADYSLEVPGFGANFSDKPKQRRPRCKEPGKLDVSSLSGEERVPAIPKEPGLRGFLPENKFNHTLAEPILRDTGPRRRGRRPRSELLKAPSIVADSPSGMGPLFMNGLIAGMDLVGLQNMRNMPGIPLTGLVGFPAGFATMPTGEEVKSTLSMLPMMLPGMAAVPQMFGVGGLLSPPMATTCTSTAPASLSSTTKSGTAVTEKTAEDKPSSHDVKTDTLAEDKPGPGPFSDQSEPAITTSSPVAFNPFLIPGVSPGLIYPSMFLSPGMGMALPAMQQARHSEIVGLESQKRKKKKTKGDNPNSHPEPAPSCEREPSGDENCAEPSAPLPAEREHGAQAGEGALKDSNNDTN

Biological target: Zinc Finger ZZ-Type And EF-Hand Domain Containing 1 (ZZEF1) (human (endogenous in MDA-MB-231)) (UniProt O43149)
Assay: affinity purification with mass spectrometry

Substance: Chromodomain Helicase DNA Binding Protein 6 (CHD6) (from UniProt Q8TD26 1-2715)
- binding: binds
